Values quoted from earlier work, collected in US11793762B2, “Composition and method for reducing joint pain associated with hemarthrosis and hemophilic arthropathy” (UPEXMED CO. LTD., priority 2018, dated 2023).
At least one structure is not confirmed: it was looked up by name or label, or the drawing left a doubt.

Tested on: hemophilic arthropathy (HA)
Conditions: oral, twelve hemophilia patients (Rattray)

Cc1ccc(-c2cc(C(F)(F)F)nn2-c2ccc(S(N)(=O)=O)cc2)cc1 [Celecoxib]
treating chronic synovitis and joint pain: safe and effective
